In patent publication US20250388638A1, “COMPOSITIONS AND METHODS FOR ORAL DELIVERY” (IMAGINE PHARMA LLC, priority 2021, published 2025):
Some of these results come from one statement about several compounds together.

System: Caco-2 cells
Assay: Caco-2 uptake assay with fluorescently labeled polypeptide constructs
Conditions: 5 μg/mL for 2 hours; fluorescent assay

“H-Met-Ala-Asp-Asp-Ala-Gly-Ala-Ala-Gly-Gly-Pro-Gly-Gly-Pro-Gly-Gly-Pro-Gly-Met-Gly-Asn-Arg-Gly-Gly-Phe-Arg-Gly-Gly-Phe-Gly-Ser-Gly-Ile-Arg-Gly-Arg-Gly-Arg-Gly-Arg-Gly-Arg-Gly-Arg-Gly-Arg-Gly-Arg-Gly-Nle (triazol-propionyl-D-Phe-Cys-Phe-D-Tru-Lys-Thr-Cys-Thr-ol)-OH [SEQ ID 50]” was tested, and the “constructs taken up by the Caco-2 cells” value was “over 30%”.
